Experimental data reported in article PMC3622178.
No constants are given. Whether binding was seen depends on the method and setting. Some results given as binding are weak or reduced against the parent protein; the word gives no strength.

Chains of the proteins cited; added tags and fusions are not shown.
UniProt Q9WTL8: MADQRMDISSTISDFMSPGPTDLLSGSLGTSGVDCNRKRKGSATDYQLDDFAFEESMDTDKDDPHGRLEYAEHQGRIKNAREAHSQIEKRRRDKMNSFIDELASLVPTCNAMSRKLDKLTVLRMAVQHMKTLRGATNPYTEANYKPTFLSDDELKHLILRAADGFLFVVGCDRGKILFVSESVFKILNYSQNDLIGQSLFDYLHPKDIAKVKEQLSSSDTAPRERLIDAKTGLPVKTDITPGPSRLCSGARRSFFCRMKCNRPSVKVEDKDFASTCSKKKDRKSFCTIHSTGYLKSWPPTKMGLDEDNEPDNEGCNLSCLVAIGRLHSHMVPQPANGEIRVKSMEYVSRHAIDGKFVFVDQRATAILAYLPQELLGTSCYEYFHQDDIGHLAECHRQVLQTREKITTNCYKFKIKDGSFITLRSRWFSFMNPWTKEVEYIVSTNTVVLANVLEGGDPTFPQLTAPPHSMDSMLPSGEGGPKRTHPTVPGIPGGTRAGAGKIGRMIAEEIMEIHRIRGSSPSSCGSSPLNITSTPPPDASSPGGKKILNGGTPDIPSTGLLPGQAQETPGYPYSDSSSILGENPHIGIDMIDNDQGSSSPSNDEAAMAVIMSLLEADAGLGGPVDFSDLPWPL

Target: BMAL1 (mouse (endogenous in C57BL/6J liver)) (UniProt Q9WTL8)
Experiment: native gel or EMSA; antibody supershift of protein complexes on 32P-labelled tandem E-box probes (Dbp EP, Dbp EI2, Per2 E', Per1 EP1); 15 ug liver nuclear protein (ZT8), 25 mM HEPES-KOH pH 7.6, 150 mM NaCl, 0.1 mM EDTA, 1 mM DTT; 16°C 30 min; anti-CLOCK or anti-BMAL1 added before the probe

B1: CLOCK (protein, UniProt O08785 1-855)
chain: MVFTVSCSKMSSIVDRDDSSIFDGLVEEDDKDKAKRVSRNKSEKKRRDQFNVLIKELGSMLPGNARKMDKSTVLQKSIDFLRKHKETTAQSDASEIRQDWKPTFLSNEEFTQLMLEALDGFFLAIMTDGSIIYVSESVTSLLEHLPSDLVDQSIFNFIPEGEHSEVYKILSTHLLESDSLTPEYLKSKNQLEFCCHMLRGTIDPKEPSTYEYVRFIGNFKSLTSVSTSTHNGFEGTIQRTHRPSYEDRVCFVATVRLATPQFIKEMCTVEEPNEEFTSRHSLEWKFLFLDHRAPPIIGYLPFEVLGTSGYDYYHVDDLENLAKCHEHLMQYGKGKSCYYRFLTKGQQWIWLQTHYYITYHQWNSRPEFIVCTHTVVSYAEVRAERRRELGIEESLPETAADKSQDSGSDNRINTVSLKEALERFDHSPTPSASSRSSRKSSHTAVSDPSSTPTKIPTDTSTPPRQHLPAHEKMTQRRSSFSSQSINSQSVGPSLTQPAMSQAANLPIPQGMSQFQFSAQLGAMQHLKDQLEQRTRMIEANIHRQQEELRKIQEQLQMVHGQGLQMFLQQSNPGLNFGSVQLSSGNSNIQQLTPVNMQGQVVPANQVQSGHISTGQHMIQQQTLQSTSTQQSQQSVMSGHSQQTSLPSQTPSTLTAPLYNTMVISQPAAGSMVQIPSSMPQNSTQSATVTTFTQDRQIRFSQGQQLVTKLVTAPVACGAVMVPSTMLMGQVVTAYPTFATQQQQAQTLSVTQQQQQQQQQPPQQQQQQQQSSQEQQLPSVQQPAQAQLGQPPQQFLQTSRLLHGNPSTQLILSAAFPLQQSTFPPSHHQQHQPQQQQQLPRHRTDSLTDPSKVQPQ
binding: binds
